# Measurements reported in PubChem BioAssay AID1259405 (NCATS, 2018)
# Test: 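Mouse-designed siRNAs used to find CHO productivity engineering targets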 (primary screen)
# Cell system: Chinese hamster CHO-K1 ovary cells with stable secreted eGFP expression
# Reagent: single siRNA against mouse genes, 0.8 pmol siRNA per well (2 µl of 400 nM stock)
# Duration: 3 days
# Measurement: 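Percent of the per-plate non-targeting control median for intracellular GFP per well by laser scanning cytometry and for cell viability by ATP luminescence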
# Reading the numbers: GFP, % of control: higher = more GFP per well, higher productivity; viability (ATP), % of control: higher = more viable cells (more ATP)
# Call rule: 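Called active when intracellular GFP, relative to negative control, is at or above 120%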
# The whole screen tested about 50,000 reagents; below is a part drawn at random. In the full data, about 4,000 (8%) were called active. 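Mouse siRNA library applied to hamster cells; one well for each siRNA.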 Entries without a mark were called inactive. Reagent sequences are not shown.
gene symbol,PubChem SID,"GFP, % of control","viability (ATP), % of control"
Wnt3a (WNT family member 3A),SID363541631,77,72.6
Wnt3a (WNT family member 3A),SID363553223,61.8,72.1
Wnt3a (WNT family member 3A),SID363566547,43.6,56.1
Cox15 (cytochrome c oxidase assembly protein 15),SID363550036,66.9,71.3
Cox15 (cytochrome c oxidase assembly protein 15),SID363564545,80.4,73
Cox15 (cytochrome c oxidase assembly protein 15),SID363588090,95.7,104
Hsd17b3 (hydroxysteroid (17-beta) dehydrogenase 3),SID363575128,120,99.8
Hsd17b3 (hydroxysteroid (17-beta) dehydrogenase 3),SID363580760,63.7,73.5
Hsd17b3 (hydroxysteroid (17-beta) dehydrogenase 3),SID363582872,82.6,78.3
Or5l13 (olfactory receptor family 5 subfamily L member 13),SID363544586,56.4,63
Or5l13 (olfactory receptor family 5 subfamily L member 13),SID363550914,60.7,73.3
Or5l13 (olfactory receptor family 5 subfamily L member 13),SID363557463,50.3,58.6
Gpatch1 (G patch domain containing 1),SID363540029,59.4,68.5
Gpatch1 (G patch domain containing 1),SID363561330,69.2,47.6
Gpatch1 (G patch domain containing 1),SID363564366,96.5,84.4
9130019P16Rik (RIKEN cDNA 9130019P16 gene),SID363540291,65.9,77.8
9130019P16Rik (RIKEN cDNA 9130019P16 gene),SID363542043,61,51.8
9130019P16Rik (RIKEN cDNA 9130019P16 gene),SID363566959,41,55.8
Dcaf1 (DDB1 and CUL4 associated factor 1),SID363546839,32,37
Dcaf1 (DDB1 and CUL4 associated factor 1),SID363548595,46.8,64.1
Dcaf1 (DDB1 and CUL4 associated factor 1),SID363560773,48,44.6
Ivd (isovaleryl coenzyme A dehydrogenase),SID363575172,85,80
Ivd (isovaleryl coenzyme A dehydrogenase),SID363580804,98.4,74.3
Ivd (isovaleryl coenzyme A dehydrogenase),SID363582916,77.2,94.9
Lbr (lamin B receptor),SID363545309,191 (active),97.3
Lbr (lamin B receptor),SID363548822,68.2,77.7
Lbr (lamin B receptor),SID363562628,69.9,78
Il17d (interleukin 17D),SID363541483,91.6,75.3
Il17d (interleukin 17D),SID363556110,55.3,63.1
Il17d (interleukin 17D),SID363566399,53.1,71.2
Cenpa (centromere protein A),SID363546122,70.9,86.6
Cenpa (centromere protein A),SID363549635,63.8,78.9
Cenpa (centromere protein A),SID363563441,55.4,49.9
Ddx6 (DEAD-box helicase 6),SID363569868,91.8,67.2
Ddx6 (DEAD-box helicase 6),SID363576908,102,117
Ddx6 (DEAD-box helicase 6),SID363578316,79.7,96.7
"Psmc5 (protease (prosome, macropain) 26S subunit, ATPase 5)",SID363569590,46.2,29.3
"Psmc5 (protease (prosome, macropain) 26S subunit, ATPase 5)",SID363577334,60.8,54.4
"Psmc5 (protease (prosome, macropain) 26S subunit, ATPase 5)",SID363578742,111,93.1
Six6 (sine oculis-related homeobox 6),SID363555006,67.5,83.8
Six6 (sine oculis-related homeobox 6),SID363568453,63.8,51
Six6 (sine oculis-related homeobox 6),SID363586512,65.1,99.5
"Ppp2r1a (protein phosphatase 2, regulatory subunit A, alpha)",SID363575250,83.3,92.8
"Ppp2r1a (protein phosphatase 2, regulatory subunit A, alpha)",SID363580882,62.9,78.8
"Ppp2r1a (protein phosphatase 2, regulatory subunit A, alpha)",SID363582994,88.3,101
Fzd2 (frizzled class receptor 2),SID363581861,79.9,105
Fzd2 (frizzled class receptor 2),SID363589355,84.1,60.7
Tyw5 (tRNA-yW synthesizing protein 5),SID363540615,71.3,75.7
Tyw5 (tRNA-yW synthesizing protein 5),SID363543066,62,64.1
Tyw5 (tRNA-yW synthesizing protein 5),SID363552559,54.3,69.3
Rps27a (ribosomal protein S27A),SID363553905,52.8,37.3
Rps27a (ribosomal protein S27A),SID363561862,64.5,35.5
Rps27a (ribosomal protein S27A),SID363565600,49.3,33.7
Or5aq6 (olfactory receptor family 5 subfamily AQ member 6),SID363544512,129 (active),57.1
Or5aq6 (olfactory receptor family 5 subfamily AQ member 6),SID363550840,89.7,89.4
Or5aq6 (olfactory receptor family 5 subfamily AQ member 6),SID363557389,76.2,54.7
Plxnb2 (plexin B2),SID363570979,61.1,77.3

Entries above whose gene name starts with L or l (3):
gene symbol,PubChem SID,"GFP, % of control","viability (ATP), % of control"
Lbr (lamin B receptor),SID363545309,191 (active),97.3
Lbr (lamin B receptor),SID363548822,68.2,77.7
Lbr (lamin B receptor),SID363562628,69.9,78
